Experimental data published in PMC12651396.
Results are given in words; binding and its absence hold for the method and conditions named. In cells and extracts the contact can be indirect. Some entries that bind do so weakly or less than the wild type. Tags and fused reporters may be left off the sequences shown.

Protein sequences, listed by entry. Tags and fused reporters are not part of them.
UniProt P67809: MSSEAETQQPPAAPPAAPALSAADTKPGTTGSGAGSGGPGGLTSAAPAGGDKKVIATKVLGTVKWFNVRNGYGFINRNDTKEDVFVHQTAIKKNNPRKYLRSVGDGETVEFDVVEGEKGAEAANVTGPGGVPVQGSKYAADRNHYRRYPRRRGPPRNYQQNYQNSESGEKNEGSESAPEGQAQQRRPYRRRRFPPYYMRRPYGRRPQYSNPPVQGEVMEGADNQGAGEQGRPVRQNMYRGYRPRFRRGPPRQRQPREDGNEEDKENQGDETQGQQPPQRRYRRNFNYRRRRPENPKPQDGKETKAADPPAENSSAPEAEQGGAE

Molecular target: T1, FLAG-tagged fibroblast growth factor 12 (FGF12) (human) (UniProt P61328)
T1 sequence: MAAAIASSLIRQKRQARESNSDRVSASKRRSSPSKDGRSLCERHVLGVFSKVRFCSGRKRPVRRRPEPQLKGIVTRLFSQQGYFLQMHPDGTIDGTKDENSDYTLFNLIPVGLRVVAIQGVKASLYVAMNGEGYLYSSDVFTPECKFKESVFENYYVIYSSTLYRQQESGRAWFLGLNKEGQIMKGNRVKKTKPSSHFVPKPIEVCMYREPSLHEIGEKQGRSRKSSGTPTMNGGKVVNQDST
Assay: co-IP; lysates of LNCaP FGF12 and control cells; anti-Flag antibody or normal IgG, Protein A/G agarose beads; Western blotting with anti-YB1 antibody; repeated after silencing of YB1 by siRNA

Y-box binding protein 1 (YB1) (from UniProt P67809 1-324)
binding: binds
